Counter-ions that a name gives are not always drawn. This is one part of the list. Cut-off read from the data, not from the text of the source: active = 2.5 or more and inactive = the rest. Most values lie within the scatter of the assay; repeated measurements hardly agree.
tested on: Lgr5 (MarsCy1-Lgr5-EGFP, U2OS); test: cell-surface Lgr5 expression (SCi1 fluorescence, background-subtracted) relative to WT control (fold of WT control); higher = more Lgr5 at the plasma membrane; conditions: U2OS MarsCy1-Lgr5-EGFP stable; treatment time: overnight; library: Prestwick; 20 µM

cell-surface Lgr5 expression, inactive:
Nc1nc2c(ncn2COC(CO)CO)c(=O)[nH]1 [Ganciclovir] 1.74, NCCCCCC(=O)O [Aminocaproic acid] 1.63, CN(C)C(=N)NC(=N)N [Metformin hydrochloride] 1.62, CC=CC(=O)N(CC)c1ccccc1C [Crotamiton] 1.72, CCN(CC)C(C)CN1c2ccccc2Sc2ccccc21 (stereo unspecified) [Ethopropazine hydrochloride] 2.23, CCCNC(=O)NS(=O)(=O)c1ccc(Cl)cc1 [Chlorpropamide] 1.77, N=C(N)NCCCCNC(=N)N [Arcaine sulfate] 2.11, Clc1cccc(Cl)c1NC1=NCCN1 [Clonidine hydrochloride] 1.09, Cc1cc2nc3c(=O)[nH]c(=O)nc-3n(C[C@H](O)[C@H](O)[C@H](O)CO)c2cc1C [Riboflavine] 2.02, O=C1NCC2(CCN(CCc3ccccc3)CC2)O1 [Fenspiride hydrochloride] 0.688, C[C@H]1[C@H](C)CC[C@]2(C(=O)O)CC[C@]3(C)C(=CC[C@@H]4[C@@]5(C)CC[C@H](O)C(C)(C)[C@@H]5CC[C@]43C)[C@H]12 [Ursolic acid] 0.643, O=C(c1ccc(F)cc1)C1CCN(CCn2c(=O)[nH]c3ccccc3c2=O)CC1 [Ketanserin tartrate hydrate] 1.56, CCN(CC)C(=O)c1ccc(O)c(OC)c1 [Ethamivan] 1.48, CCC1(c2ccccc2)C(=O)NCNC1=O [Primidone] 1.07, CN(C)CCC(c1ccc(Br)cc1)c1ccccn1 (stereo unspecified) [Brompheniramine maleate] 1.32, Nc1ncnc2c1ncn2[C@@H]1O[C@H](CO)[C@@H](O)[C@@H]1O [Vidarabine] 1.39, CN1CCN(CC(=O)N2c3ccccc3C(=O)Nc3cccnc32)CC1 [Pirenzepine dihydrochloride] 1.06, CN(CCCCCCCCCCN(C)C(=O)Oc1cccc([N+](C)(C)C)c1)C(=O)Oc1cccc([N+](C)(C)C)c1 [Demecarium bromide] 2.26, CC(=O)N(CC(O)CO)c1c(I)c(C(=O)NCC(O)CO)c(I)c(C(=O)NCC(O)CO)c1I (stereo unspecified) [Iohexol] 2.05, COC(=O)Nc1nc2cc(Sc3ccccc3)ccc2[nH]1 [Fenbendazole] 0.487, NC(Cn1ccc(=O)c(O)c1)C(=O)O (stereo unspecified) [Mimosine] 1.22, C[C@@H]1CCC[C@H](C)N1NC(=O)c1ccc(Cl)c(S(N)(=O)=O)c1 [Clopamide] 1.78, CN[C@H]1CC[C@@H](c2ccc(Cl)c(Cl)c2)c2ccccc21 [Sertraline] 1.65, Nc1ccc(S(=O)(=O)Nc2nccs2)cc1 [Sulfathiazole] 1.22, CC(CNC1CCCCC1)OC(=O)c1ccccc1 (stereo unspecified) [Hexylcaine hydrochloride] 1.97, CC(C)[N+]1(C)[C@@H]2CC[C@H]1C[C@@H](OC(=O)C(CO)c1ccccc1)C2 (stereo partly specified) [Ipratropium bromide] 1.66, CCOC1O[C@H]([C@@H](COCc2ccccc2)OCc2ccccc2)[C@H](OCc2ccccc2)[C@H]1O (stereo partly specified) [Tribenoside] 0.941, CC(=O)Nc1c(I)c(C(=O)N[C@H]2C(O)O[C@H](CO)[C@@H](O)[C@@H]2O)c(I)c(N(C)C(C)=O)c1I (stereo partly specified) [Metrizamide] 1, CCN(CC)CCNC(=O)c1ccc(N)cc1 [Procainamide hydrochloride] 1.78, CC(=O)c1cc2ccccc2oc1=O [3-Acetylcoumarin] 2.2, CCCCOc1cc(C(=O)OCCN(CC)CC)ccc1N [Benoxinate hydrochloride] 1.3, CC(=O)Nc1nnc(S(N)(=O)=O)s1 [Acetazolamide] 1.45, Cc1cc2cc3c(C)cc(=O)oc3c(C)c2o1 [Trioxsalen] 1.94, O=C(O)[C@@H]1[C@H]2C[C@H]3c4[nH]c5ccccc5c4CCN3C[C@@H]2CC[C@@H]1O [Yohimbinic acid monohydrate] 1.82, COc1cc(CNC(=O)CCCC/C=C/C(C)C)ccc1O [Capsaicin] 1.76, CO/N=C(\C(=O)N[C@@H]1C(=O)N2C(C(=O)O)=C(COC(C)=O)CS[C@H]12)c1csc(N)n1 [Cefotaxime sodium salt] 1.9, C[C@@H]1C/C=C/C=C/C=C/C=C/[C@H](O[C@@H]2O[C@H](C)[C@@H](O)[C@H](N)[C@@H]2O)C[C@@H]2O[C@](O)(C[C@@H](O)C[C@H]3O[C@@H]3/C=C/C(=O)O1)C[C@H](O)[C@H]2C(=O)O [Natamycin] 1.22, CC(C(O)c1ccc(O)cc1)N1CCC(Cc2ccccc2)CC1 (stereo unspecified) [Ifenprodil tartrate] 0.443, CN(C(=O)CN(CCO)CC(=O)N(C)C(C)(C)Cc1ccccc1)C(C)(C)Cc1ccccc1 [Oxethazaine] 0.881, Cc1cc(C)nc(NS(=O)(=O)c2ccc(N)cc2)n1 [Sulfamethazine sodium salt] 2.25, COc1cc(NS(=O)(=O)c2ccc(N)cc2)ncn1 [Sulfamonomethoxine] 2.34, CCCOc1ccccc1-c1nc2[nH]nnc2c(=O)[nH]1 [Zaprinast] 1.74, COc1ccc(Cl)cc1C(=O)NCCc1ccc(S(=O)(=O)NC(=O)NC2CCCCC2)cc1 [Glibenclamide] 0.547, CC#C[C@]1(O)CC[C@H]2[C@@H]3CCC4=CC(=O)CCC4=C3[C@@H](c3ccc(N(C)C)cc3)C[C@@]21C [Mifepristone] 1.51, CCN(CCCCOC(=O)c1ccc(OC)c(OC)c1)C(C)Cc1ccc(OC)cc1 (stereo unspecified) [Mebeverine hydrochloride] 0.822

cell-surface Lgr5 expression, active:
CNCCc1ccccn1 [Betahistine mesylate] 3.56
